The other results are listed elsewhere or left out.
test: HoxA9-arrested leukemia cell differentiation promoters – flow cytometry, MLPCN library, primary screen (AID 624256); details: ER-HoxA9 myeloid progenitors, lysozyme-GFP differentiation, measured here: differentiation confirmed by MAC1 staining, at 10 µM, stronger effect = higher value;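 further: cells exposed to compound for four days before flow analysis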

Row | Structure (SMILES) | GFP+ MAC1+ double positive
1 | CN1CCC(Nc2ccc(Cl)cc2)CC1 | 0.6%
2 | COc1cccc(C(c2nnnn2C2CCCC2)N2CCC(n3c(=O)[nH]c4ccccc43)CC2)c1OC (stereo unspecified) | 2%
3 | COc1cc(OC)cc(C(=O)NCC2(N3CCOCC3)CCCCC2)c1 | 0.1%
4 | COc1cccc(C(=O)N(c2cc(C)cc(C)c2)C2CCN(C(=O)OC(C)(C)C)CC2)c1 | 0.3%
5 | CCC(CO)(C(=O)OC1CN2CCC1CC2)c1ccccc1 (stereo unspecified) | 1.4%
6 | O=C(O)C1(Nc2ccccc2)CCN(Cc2ccccc2)CC1 | 0.7%
7 | NN(c1ccccc1)C1CCN(CCc2ccccc2)CC1 | 1.6%
8 | CC(C)(C)OC(=O)N1CCC(Nc2ccccc2)CC1 | 0.4%
9 | CCCOc1ccc(C(=O)NCC2(N(C)C)CCCCC2)cc1 | 0.4%
10 | O=c1[nH]c2ccccc2n1C1CCN(C(c2cc3ccccc3o2)c2nnnn2C2CCCC2)CC1 (stereo unspecified) | 0.8%
11 | CN1CCC(Nc2ccc(F)c(Cl)c2)CC1 | 1.1%
12 | CCOc1ncccc1C(=O)NCC1(N2CCOCC2)CCCCC1 | 0.8%
13 | Cn1c(=O)[nH]cc(N(CCCl)CCCl)c1=O | 1.4%
14 | CN(C)c1ccc(C(=O)NCC2(N3CCCCC3)CCCCC2)cc1 | 0.7%
15 | O=C(NCC1(N2CCCCC2)CCCCC1)c1ccco1 | 0.8%
16 | CC(C)(C)n1nnnc1C(c1ccnc2ccccc12)N1CCC(n2c(=O)[nH]c3ccccc32)CC1 (stereo unspecified) | 0.7%

Row | Structure (SMILES) | GFP+ MAC1+ double positive
17 | COc1ccc(C(c2nnnn2C2CCCCC2)N2CCC(n3c(=O)[nH]c4ccccc43)CC2)cc1 (stereo unspecified) | 1.8%
18 | CCN1CCC(Nc2cccc(F)c2)CC1 | 1.3%
19 | Cc1ccccc1NC1(C#N)CCN(Cc2ccccc2)CC1 | 0.4%
20 | Fc1ccccc1NC1CCN(Cc2ccccc2)CC1 | 2%
21 | Cc1ccc(C(=O)NCC2(N3CCCCC3)CCCCC2)o1 | 1%
22 | Cc1ccc(NC2(C#N)CCN(Cc3ccccc3)CC2)cc1 | 2.2%
23 | CCC(c1nnnn1C1CCCCC1)N1CCC(n2c(=O)[nH]c3ccccc32)CC1 (stereo unspecified) | 0.4%
24 | CC(=O)N(c1ccccc1)C1CCNCC1 | 0.6%
25 | COc1cccc(C(c2nnnn2C2CCCCC2)N2CCC(n3c(=O)[nH]c4ccccc43)CC2)c1OC (stereo unspecified) | 3%
26 | O=c1[nH]c2ccccc2n1C1CCN(C(c2ccnc3ccccc23)c2nnnn2C2CCCCC2)CC1 (stereo unspecified) | 1.6%
27 | COc1cc(OC)cc(C(=O)NCC2(N3CCCCC3)CCCCC2)c1 | 0.6%
28 | CC(C)(C)n1nnnc1C(c1cccc2ccccc12)N1CCC(n2c(=O)[nH]c3ccccc32)CC1 (stereo unspecified) | 0.8%
29 | CN(C)C1(CNC(=O)c2cccc(C#N)c2)CCCCC1 | 0.6%
30 | O=c1[nH]c2ccccc2n1C1CCN(C(c2ccccc2)c2nnnn2C2CCCC2)CC1 (stereo unspecified) | 0.8%
31 | CCCN1CCC(Nc2cc(OC)cc(OC)c2)CC1 | 0.7%

Reference: PubChem BioAssay AID624256 (NMMLSC, 2012)
